A short description of the series: Absorption and fluorescence of LEAT proteins and their mutants. To be noted: for Fluorescence: fluorescence intensity in words, recombinant protein from E. coli. The format is physicochemical. An excerpt:
FIG. 7. Absorption spectra of YFP (A, B) and mCherry (E, F) and their mutants. (B) is a zoom in view of YFPmu4 and YFPmu7 in (A). (F) is a zoom in view of mCherrymu4 and mCherrymu7 in (E). Fluorescence of YFP (C) and mCherry (G) and their mutant. Water hydrolysis and O2 evolution activities of YFP (D) and mCherry (H) and their mutants under light. (A, B, C, E, F, G): absorption and fluorescence intensities were compared with same concentrations of proteins. Absorption intensity of non-mutated YFP or mCherry is considered as 1, and fluorescence intensity of non-mutated YFP or mCherry is considered as 100.

B1: spisCP: non-fluorescent chromoprotein from Stylophora pistillata (DQ206398), SEQ ID NO: 38 (protein, listed as Echinopora forskaliana)
chain: MSHSKQALADTMKMTWLMEGSVNGHAFTIEGEGTGKPYEGKQSGTFRVTKGGPLPFAFDIVAPTLKYGFKCFMKYPADIPDYFKLAFPEGLTYDRKIAFEDGGCATATVEMSLKGNTLVHKTNFQGGNFPIDGPVMQKRTLGWEPTSEKMTPCDGIIKGDTIMYLMVEGGKTLKCRYENNYRANKPVLMPPSHFVDLRLTRTNLDKEGLAFKLEEYAVARVLEV
With B1, the Fluorescence result is recorded as “Extream weak”.

B2: phiYFP: yellow fluorescent protein from Phialidium sp. SL-2003 (AY485333), SEQ ID NO: 50 (protein)
chain: MSSGALLFHGKIPYVVEMEGNVDGHTFSIRGKGYGDASVGKVDAQFICTTGDVPVPWSTLVTTLTYGAQCFAKYGPELKDFYKSCMPEGYVQERTITFEGDGVFKTRAEVTFENGSVYNRVKLNGQGFKKDGHVLGKNLEFNFTPHCLYIWGDQANHGLKSAFKIMHEITGSKEDFIVADHTQMNTPIGGGPVHVPEYHHITYHVTLSKDVTDHRDNMSLVETVRAVDCRKTYL
modifications: Aequorea Victoria
As to B2, the Fluorescence result was “Strong”.

B3: efofCP/RFP: protein from Echinopora forskaliana (EU498726), SEQ ID NO: 34 (protein, listed as Echinopora forskaliana)
chain: MSVIKQVMKTKLHLEGTVNGHDFTIEGKGEGKPYEGLQHMKMTVTKGAPLPFSVHILTPSHMYGSKPFNKYPADIPDYHKQSFPEGMSWERSMIFEDGGVCTASNHSSINLQENCFIYDVKFHGVNLPPDGPVMQKTIAGWEPSVETLYVRDGMLKSDTAMVFKLKGGGHHRVDFKTTYKAKKPVKLPEFHFVEHRLELTKHDKDFTTWDQQEAAEGHFSPLPKALP
As to B3, the Fluorescence result is on record as “Strong”.

B4: efasCFP: cyan fluorescent protein from Eusmilia fastigiata (DQ206397), SEQ ID NO: 36 (protein, listed as Echinopora forskaliana)
chain: MSFSKQVLNDVTMTYFMEGSVNGHDFTIEGEGTGKPYEGHQRFNLRVTKGAPLPFAVDILSAAFAYGNRCFTKYPKEIPDFFKQSLPEDMSWERTMTFEDGGIVAISAHIRLIGNRFEHKSKFVGVNFPADGPVMQRKTLGWEPSSEKMTPRDGILKGYVPSFLVLQGGGNYRCDYDTSYRAMKPVEMPGGHFIQHRIVRRDIKKDSNGNTWQIQEDAFAHNSEVPDSA
Regarding B4, the Fluorescence entry was “Strong”.

B5: rmueGFP: green fluorescent protein from Renilla muelleri (AY015996), SEQ ID NO: 44 (protein, listed as Renilla muelleri)
chain: MSKQILKNTCLQEVMSYKVNLEGIVNNHVFTMEGCGKGNILFGNQLVQIRVTKGAPLPFAFDIVSPAFQYGNRTFTKYPNDISDYFIQSFPAGFMYERTLRYEDGGLVEIRSDINLIEDKFVYRVEYKGSNFPDDGPVMQKTILGIEPSFEAMYMNNGVLVGEVILVYKLNSGKYYSCHMKTLMKSKGVVKEFPSYHFIQHRLEKTYVEDGGFVEQHETAIAQMTSIGKPLGSLHEWV
Consider B5, for which the Fluorescence result is listed as “weak”.

B6: ceriantRFP: red fluorescent protein from Cerianthus sp. DW-2003 (AY296063), SEQ ID NO: 46 (protein, listed as Cerianthus sp.)
chain: MNLSKNVSVSVYMKGNVNNHEFEYDGEGGGDPYTGKYSMKMTLRGQNCLPFSYDIITTAFQYGFRVFTKYPEGIVDYFKDSLPDAFQWNRRIVFEDGGVLNMSSDITYKDNVLHGDVWAVGVNFPPNGPVMKNEIVMEEPTEETFTPKNGVLVGFCPKAYLLKDGSYYYGNMTTFYRSKKSGQAPPGYHFVKHRLVKTNVGHGFKTVEQTEYATAHVSDLPK
Consider B6, for which the Fluorescence entry is on record as “strong”.

B7: anm2CP: chromoprotein from Anthomedusae sp. SL-2003 (AY485336), SEQ ID NO: 48 (protein, listed as Anthomedusae sp.)
chain: MEGGPALFQSDMTFKIFIDGVVNDQKFTIIADGSSKFPHGDFNVHAVCETGKLPMSWKPICHLIQYGEPFFAKYPNGISHFAQECFPEGLTIDRTVRFENDGTMTSHHTYELDGTCVISRITVNCDGFQPDGPIMKDQLVDILPTETHMFPHGSNAVRQLCYIGFTTADGGLMMSHFDSKLTFNGSRAIKIPGPHFVTVIIKQMKDTSDKRDHVCQREVTYAHSVPRITSAI
In the case of B7, the Fluorescence emission wavelength was 830-870 nm,.

B8: rfloRFP: red fluorescent protein from Ricordea florida (AY037773), SEQ ID NO: 42 (protein, listed as Ricordea florida)
chain: MSALKEEMKIKLTLVGVVNGHPFKIIGDGKGKPYEGSQELTLAVVEGGPLPFSYDILTTIVHYGNRAFVNYPKDIPDIFKQTCSGPGAGYSWQRTMSFEDGGVCTATSHIRVDGDTFNYDIHFMGADFPLNGPVMQKRTVKWEPSTEIMFQCDGLLRGDVAMSLLLKGGGHYRCDFKTIYKPKKNVKMPGYHFVDHCIEITSQQDDYNVVELYEGAVAHYSPLQKPCQAKA
Consider B8, for which the Fluorescence entry was “weak”.

B9: cpGFP: green fluorescent protein from Chiridius poppei (AB185173), SEQ ID NO: 52 (protein, listed as Chiridius poppei)
chain: MTTFKIESRIHGNLNGEKFELVGGGVGEEGRLEIEMKTKDKPLAFSPFLLSHCMGYGFYHFASFPKGTKNIYLHAATNGGYTNTRKEIYEDGGILEVNFRYTYEFNKIIGDVECIGHGFPSQSPIFKDTIVKSCPTVDLMLPMSGNIIASSYARAFQLKDGSFYTAEVKNNIDFKNPIHESFSKSGPMFTHRRVEETHTKENLAMVEYQQVFNSAPRDM
B9: the Fluorescence entry is recorded as “Stong”.

B10: scubGFP: green fluorescent protein from Scolymia cubensis (AY037767), SEQ ID NO: 40 (protein, listed as Echinopora forskaliana)
chain: MQRAGMKVKEHMKIKLRMGGTVNGKHFAVNGTGDGYPYQGKQILKLIVEGSEPLPFAFDILSAAFQYGNRAFTEYPTEIADYFKQSFEFGEGFSWERSFTFEDGAICVATNDITMVGGEFQYDIRFDGLNFPEDGPVMQKKTVKWEPSTEIMYMQNGVLKGEVNMALLLQDKSHYRCDLKTTYKAKNNVPHPPGYHYVDHCIEILEERKDHVKLREHAKARSSLSPTSAKERKA
Turning to B10, the Fluorescence entry is given as “Strong”.

The values above are taken from patent US20170037425A1, “METHOD FOR IMPROVING PLANT TRAIT” (SHANGHAI INSTITUTES FOR BIOLOGICAL SCIENCES, CHINESE …, priority 2012, published 2017).
